These are yes or no findings as the source states them, for the method shown. Binding seen in cells or lysates may run through a third protein. Here binding means that the protein was enriched with, or labelled near, the bait; the list need not be complete.

By UniProt entry, the sequences of proteins in these tests, tags left out.
UniProt Q8K019: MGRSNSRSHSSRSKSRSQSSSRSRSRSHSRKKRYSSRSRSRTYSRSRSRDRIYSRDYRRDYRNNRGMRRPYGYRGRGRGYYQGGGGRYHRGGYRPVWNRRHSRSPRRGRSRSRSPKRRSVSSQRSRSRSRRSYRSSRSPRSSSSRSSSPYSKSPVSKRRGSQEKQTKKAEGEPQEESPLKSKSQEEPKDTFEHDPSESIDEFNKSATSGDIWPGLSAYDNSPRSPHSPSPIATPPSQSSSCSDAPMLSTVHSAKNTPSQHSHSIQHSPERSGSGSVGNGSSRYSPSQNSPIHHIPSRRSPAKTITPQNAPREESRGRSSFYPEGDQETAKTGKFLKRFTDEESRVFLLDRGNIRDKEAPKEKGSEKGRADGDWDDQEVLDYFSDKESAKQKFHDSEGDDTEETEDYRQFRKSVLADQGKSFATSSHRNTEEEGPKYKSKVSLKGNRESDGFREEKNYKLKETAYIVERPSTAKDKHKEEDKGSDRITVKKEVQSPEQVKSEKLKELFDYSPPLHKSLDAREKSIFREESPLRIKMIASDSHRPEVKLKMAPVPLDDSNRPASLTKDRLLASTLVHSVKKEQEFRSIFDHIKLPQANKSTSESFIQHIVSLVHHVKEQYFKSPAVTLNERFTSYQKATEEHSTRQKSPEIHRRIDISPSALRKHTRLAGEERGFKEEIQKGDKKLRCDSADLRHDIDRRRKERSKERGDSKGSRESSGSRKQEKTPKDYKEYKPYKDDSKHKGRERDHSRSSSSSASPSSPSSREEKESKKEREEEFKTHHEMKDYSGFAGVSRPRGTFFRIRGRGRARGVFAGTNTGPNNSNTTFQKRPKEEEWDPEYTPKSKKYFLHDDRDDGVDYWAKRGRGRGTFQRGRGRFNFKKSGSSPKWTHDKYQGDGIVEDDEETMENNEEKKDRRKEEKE
UniProt P11531: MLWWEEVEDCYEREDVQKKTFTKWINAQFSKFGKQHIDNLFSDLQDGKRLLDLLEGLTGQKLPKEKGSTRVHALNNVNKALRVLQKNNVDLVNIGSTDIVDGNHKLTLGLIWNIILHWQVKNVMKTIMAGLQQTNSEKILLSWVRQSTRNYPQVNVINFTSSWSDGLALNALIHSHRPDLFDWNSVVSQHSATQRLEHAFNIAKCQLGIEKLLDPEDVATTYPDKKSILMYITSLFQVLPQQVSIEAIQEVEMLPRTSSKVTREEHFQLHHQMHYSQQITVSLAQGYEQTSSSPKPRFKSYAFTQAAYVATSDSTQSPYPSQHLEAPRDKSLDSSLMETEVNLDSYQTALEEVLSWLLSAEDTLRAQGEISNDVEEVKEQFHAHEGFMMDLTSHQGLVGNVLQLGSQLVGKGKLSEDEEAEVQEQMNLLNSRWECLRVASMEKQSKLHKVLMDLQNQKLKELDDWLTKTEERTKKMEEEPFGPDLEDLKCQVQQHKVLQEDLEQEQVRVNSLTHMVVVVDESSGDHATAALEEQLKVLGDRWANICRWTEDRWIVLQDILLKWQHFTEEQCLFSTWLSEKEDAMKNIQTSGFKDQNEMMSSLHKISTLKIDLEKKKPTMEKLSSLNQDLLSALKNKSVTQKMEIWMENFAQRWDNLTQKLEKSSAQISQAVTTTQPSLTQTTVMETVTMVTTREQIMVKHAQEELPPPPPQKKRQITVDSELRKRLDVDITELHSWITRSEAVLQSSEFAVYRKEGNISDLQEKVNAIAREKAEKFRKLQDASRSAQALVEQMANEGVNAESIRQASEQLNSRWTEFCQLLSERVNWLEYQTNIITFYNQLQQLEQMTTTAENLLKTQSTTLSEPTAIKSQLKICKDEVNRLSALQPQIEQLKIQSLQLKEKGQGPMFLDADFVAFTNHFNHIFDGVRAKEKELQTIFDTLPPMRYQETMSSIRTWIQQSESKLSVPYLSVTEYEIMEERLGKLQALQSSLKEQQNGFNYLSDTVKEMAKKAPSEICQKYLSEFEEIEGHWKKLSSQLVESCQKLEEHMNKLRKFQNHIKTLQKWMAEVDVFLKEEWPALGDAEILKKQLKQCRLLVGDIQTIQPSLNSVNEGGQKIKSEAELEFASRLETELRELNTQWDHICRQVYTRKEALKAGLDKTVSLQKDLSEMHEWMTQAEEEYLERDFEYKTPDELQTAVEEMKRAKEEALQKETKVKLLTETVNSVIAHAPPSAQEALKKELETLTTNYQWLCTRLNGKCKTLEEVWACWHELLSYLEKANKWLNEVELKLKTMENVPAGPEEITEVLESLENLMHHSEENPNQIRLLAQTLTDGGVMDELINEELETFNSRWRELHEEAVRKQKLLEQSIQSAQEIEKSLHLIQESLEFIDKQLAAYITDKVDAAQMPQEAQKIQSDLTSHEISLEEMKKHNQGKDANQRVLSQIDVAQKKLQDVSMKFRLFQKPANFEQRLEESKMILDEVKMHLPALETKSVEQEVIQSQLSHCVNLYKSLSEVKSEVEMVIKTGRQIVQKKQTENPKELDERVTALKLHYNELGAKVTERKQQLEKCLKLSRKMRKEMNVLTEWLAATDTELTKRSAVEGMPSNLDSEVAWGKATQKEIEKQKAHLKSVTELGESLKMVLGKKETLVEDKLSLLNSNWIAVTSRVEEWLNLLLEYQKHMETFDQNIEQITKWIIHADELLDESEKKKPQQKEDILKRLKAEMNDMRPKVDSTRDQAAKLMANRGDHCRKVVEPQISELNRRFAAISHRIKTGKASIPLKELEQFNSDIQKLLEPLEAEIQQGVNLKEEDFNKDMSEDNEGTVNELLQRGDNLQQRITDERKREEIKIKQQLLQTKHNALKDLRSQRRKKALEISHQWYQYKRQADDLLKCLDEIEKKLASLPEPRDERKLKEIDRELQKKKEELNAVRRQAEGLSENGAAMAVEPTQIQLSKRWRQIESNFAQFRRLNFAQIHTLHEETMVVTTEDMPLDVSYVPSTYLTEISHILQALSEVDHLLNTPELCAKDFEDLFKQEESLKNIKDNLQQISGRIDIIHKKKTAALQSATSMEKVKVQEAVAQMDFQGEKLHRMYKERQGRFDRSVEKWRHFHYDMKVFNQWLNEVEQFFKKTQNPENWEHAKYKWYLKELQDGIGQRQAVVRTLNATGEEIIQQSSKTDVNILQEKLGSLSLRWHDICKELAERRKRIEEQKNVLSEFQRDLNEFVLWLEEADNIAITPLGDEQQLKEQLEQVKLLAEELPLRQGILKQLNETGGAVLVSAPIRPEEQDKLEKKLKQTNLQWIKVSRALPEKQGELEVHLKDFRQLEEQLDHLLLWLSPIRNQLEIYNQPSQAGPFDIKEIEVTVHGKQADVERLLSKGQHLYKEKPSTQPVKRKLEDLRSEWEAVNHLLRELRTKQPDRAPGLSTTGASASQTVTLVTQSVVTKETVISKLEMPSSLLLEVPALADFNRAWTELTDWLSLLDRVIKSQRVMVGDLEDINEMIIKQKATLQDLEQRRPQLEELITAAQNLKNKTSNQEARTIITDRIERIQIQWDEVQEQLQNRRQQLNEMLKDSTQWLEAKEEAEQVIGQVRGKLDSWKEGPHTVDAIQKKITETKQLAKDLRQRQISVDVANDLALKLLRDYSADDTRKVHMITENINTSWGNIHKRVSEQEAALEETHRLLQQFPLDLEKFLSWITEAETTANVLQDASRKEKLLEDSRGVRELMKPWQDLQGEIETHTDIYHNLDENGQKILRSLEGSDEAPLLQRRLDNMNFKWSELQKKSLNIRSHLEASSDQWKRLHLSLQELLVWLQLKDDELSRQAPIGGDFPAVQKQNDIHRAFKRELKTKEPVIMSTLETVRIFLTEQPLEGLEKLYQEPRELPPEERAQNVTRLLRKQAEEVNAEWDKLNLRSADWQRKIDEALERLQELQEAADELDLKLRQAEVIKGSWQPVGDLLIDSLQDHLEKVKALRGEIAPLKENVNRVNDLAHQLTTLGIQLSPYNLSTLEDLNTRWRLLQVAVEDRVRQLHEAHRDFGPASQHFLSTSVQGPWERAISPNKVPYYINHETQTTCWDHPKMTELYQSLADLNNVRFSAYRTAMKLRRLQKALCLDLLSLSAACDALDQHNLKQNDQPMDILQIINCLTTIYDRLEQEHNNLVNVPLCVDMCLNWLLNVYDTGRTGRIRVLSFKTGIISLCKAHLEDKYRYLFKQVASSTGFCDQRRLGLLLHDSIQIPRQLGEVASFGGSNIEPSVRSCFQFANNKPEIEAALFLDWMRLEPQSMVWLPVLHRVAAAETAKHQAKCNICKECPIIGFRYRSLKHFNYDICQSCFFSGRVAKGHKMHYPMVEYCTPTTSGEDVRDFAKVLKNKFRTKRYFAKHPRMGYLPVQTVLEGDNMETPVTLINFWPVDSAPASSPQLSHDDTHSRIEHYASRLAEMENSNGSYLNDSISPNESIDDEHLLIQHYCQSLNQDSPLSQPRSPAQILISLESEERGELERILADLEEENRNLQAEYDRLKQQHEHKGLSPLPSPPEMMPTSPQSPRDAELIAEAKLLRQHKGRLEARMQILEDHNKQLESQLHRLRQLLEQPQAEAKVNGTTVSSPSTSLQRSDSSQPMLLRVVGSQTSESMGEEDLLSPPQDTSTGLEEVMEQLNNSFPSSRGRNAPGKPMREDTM
UniProt Q9QVP9: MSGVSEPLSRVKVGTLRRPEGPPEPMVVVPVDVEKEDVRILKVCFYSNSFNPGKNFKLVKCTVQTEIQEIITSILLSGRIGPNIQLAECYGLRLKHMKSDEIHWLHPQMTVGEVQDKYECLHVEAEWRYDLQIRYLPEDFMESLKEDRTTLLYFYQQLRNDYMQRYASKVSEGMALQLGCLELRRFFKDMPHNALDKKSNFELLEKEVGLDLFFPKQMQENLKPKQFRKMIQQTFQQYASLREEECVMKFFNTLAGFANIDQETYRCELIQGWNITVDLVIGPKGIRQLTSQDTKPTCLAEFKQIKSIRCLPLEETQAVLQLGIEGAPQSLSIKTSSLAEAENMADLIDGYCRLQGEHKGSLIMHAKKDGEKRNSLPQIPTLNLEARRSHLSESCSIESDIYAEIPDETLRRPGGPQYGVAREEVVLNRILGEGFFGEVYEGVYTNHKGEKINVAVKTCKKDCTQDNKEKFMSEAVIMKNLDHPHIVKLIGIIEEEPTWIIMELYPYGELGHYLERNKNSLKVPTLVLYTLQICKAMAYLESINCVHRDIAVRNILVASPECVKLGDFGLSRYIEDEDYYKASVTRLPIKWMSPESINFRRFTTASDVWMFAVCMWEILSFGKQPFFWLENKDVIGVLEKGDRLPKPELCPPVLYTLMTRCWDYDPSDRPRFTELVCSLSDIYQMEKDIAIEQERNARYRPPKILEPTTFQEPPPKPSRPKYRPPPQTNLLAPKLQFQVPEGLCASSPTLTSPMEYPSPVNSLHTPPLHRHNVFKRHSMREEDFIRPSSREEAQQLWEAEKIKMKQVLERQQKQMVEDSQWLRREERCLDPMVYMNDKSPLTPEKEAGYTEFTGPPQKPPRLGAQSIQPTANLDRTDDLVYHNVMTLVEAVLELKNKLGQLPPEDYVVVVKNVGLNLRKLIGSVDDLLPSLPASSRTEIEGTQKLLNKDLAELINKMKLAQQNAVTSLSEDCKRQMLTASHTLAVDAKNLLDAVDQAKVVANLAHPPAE
UniProt D3YXK2: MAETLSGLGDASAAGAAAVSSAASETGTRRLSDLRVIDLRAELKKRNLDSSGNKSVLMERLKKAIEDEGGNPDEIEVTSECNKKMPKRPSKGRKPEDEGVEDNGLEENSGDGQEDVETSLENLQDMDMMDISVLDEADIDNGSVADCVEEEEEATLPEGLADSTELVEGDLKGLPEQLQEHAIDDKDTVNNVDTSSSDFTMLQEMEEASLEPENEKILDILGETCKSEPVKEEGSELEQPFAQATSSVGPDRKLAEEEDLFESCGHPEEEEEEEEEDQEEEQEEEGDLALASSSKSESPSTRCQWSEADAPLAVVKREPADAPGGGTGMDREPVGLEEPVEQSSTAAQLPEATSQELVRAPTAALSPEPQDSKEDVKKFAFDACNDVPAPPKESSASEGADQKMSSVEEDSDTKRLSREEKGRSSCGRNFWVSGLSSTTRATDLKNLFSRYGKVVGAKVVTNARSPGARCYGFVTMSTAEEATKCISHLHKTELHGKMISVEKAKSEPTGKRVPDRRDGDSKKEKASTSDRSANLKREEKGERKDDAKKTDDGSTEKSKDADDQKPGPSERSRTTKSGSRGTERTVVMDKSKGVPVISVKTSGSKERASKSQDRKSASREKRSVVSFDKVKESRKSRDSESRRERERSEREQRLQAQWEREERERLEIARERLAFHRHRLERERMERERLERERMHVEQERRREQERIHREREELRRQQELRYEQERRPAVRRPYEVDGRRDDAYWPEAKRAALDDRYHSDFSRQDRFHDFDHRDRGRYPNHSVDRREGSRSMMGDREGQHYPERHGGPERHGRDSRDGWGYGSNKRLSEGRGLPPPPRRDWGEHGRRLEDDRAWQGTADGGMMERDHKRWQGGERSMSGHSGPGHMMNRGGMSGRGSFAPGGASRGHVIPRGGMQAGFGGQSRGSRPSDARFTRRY

The labels stand for the following.
T1: SATB2 (mouse (endogenous in cortex)) (UniProt Q8VI24)
T1 sequence: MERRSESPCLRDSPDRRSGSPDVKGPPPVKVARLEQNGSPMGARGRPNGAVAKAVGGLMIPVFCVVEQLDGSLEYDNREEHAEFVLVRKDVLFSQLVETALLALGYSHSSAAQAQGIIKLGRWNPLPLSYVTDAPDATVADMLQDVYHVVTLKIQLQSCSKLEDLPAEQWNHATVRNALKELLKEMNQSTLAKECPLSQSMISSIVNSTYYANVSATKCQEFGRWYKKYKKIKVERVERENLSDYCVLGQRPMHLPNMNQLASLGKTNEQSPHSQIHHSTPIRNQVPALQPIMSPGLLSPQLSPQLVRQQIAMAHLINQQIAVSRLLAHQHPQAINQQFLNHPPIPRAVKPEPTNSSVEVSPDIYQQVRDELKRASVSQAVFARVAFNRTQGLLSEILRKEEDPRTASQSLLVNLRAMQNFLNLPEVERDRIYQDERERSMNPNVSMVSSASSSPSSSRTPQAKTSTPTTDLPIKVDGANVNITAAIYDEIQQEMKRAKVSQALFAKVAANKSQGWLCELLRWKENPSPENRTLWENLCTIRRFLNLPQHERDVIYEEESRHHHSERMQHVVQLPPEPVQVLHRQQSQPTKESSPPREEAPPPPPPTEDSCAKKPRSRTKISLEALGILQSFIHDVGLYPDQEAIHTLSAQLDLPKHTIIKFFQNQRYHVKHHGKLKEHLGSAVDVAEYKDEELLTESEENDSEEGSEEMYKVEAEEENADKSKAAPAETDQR

B1: Lamin B1 (protein, UniProt P14733 1-588)
chain: MATATPVQQQRAGSRASAPATPLSPTRLSRLQEKEELRELNDRLAVYIDKVRSLETENSALQLQVTEREEVRGRELTGLKALYETELADARRALDDTARERAKLQIELGKFKAEHDQLLLNYAKKESDLSGAQIKLREYEAALNSKDAALATALGDKKSLEGDLEDLKDQIAQLEASLSAAKKQLADETLLKVDLENRCQSLTEDLEFRKNMYEEEINETRRKHETRLVEVDSGRQIEYEYKLAQALHEMREQHDAQVRLYKEELEQTYHAKLENARLSSEMNTSTVNSAREELMESRMRIESLSSQLSNLQKESRACLERIQELEDMLAKERDNSRRMLSDREREMAEIRDQMQQQLSDYEQLLDVKLALDMEISAYRKLLEGEEERLKLSPSPSSRVTVSRASSSRSVRTTRGKRKRVDVEESEASSSVSISHSASATGNVCIEEIDVDGKFIRLKNTSEQDQPMGGWEMIRKIGDTSVSYKYTSRYVLKAGQTVTVWAANAGVTASPPTDLIWKNQNSWGTGEDVKVILKNSQGEEVAQRSTVFKTTIPEEEEEEEEEPIGVAVEEERFHQQGAPRASNKSCAIM
B2: TSC22D4 (protein, UniProt Q9EQN3 1-387)
chain: MSGGKKKSSFQITSVTTDYEGPGSPGASDSPVPPALAGPPPRLPNGDPNPDPGGRGTPRNGSPPPGAPASRFRVVKLPQGLGEPYRRGRWTCVDVYERDLEPPSFGRLLEGIRGASGGTGGRSLDSRLELASLGISTPIPQPGLSQGPTSWLRPPPTSPGPQARSFTGGLGQLAGPGKAKVETPPLSASPPQQRPPGPGTGDSAQTLPSLRVEVESGGSAAATPPLSRRRDGAVRLRMELVAPAETGKVPPTDSRPNSPALYFDASLVHKSPDPFGAAAAQSLSLARSMLAISGHLDSDDDSGSGSLVGIDNKIEQAMDLVKSHLMFAVREEVEVLKEQIRDLAERNAALEQENGLLRALASPEQLAQLPSSGLPRLGPSAPNGPSI
B3: Lamin B2 (protein, UniProt P21619 1-596)
chain: MASLPPHAGPATPLSPTRLSRLQEKEELRELNDRLAHYIDRVRALELENDRLLLRISEKEEVTTREVSGIKTLYESELADARRVLDETARERARLQIEIGKVQAELEEARKSAKKREGELTVAQGRVKDLESLFHRSEAELATALSDKQGLETEVAELRAQLAKAEDGHAVAKKQLEKETLMRVDLENRCQSLQEELAFSKSVFEEEVRETRRRHERRLVEVDSSRQQEYDFKMAQALEDLRSQHDEQVRLYRVELEQTYQAKLDNAKLLSDQNDKAAHAAREELKEARMRVESLSYQLLGLQKQASAAENHIHELEEALAGERDKFRKMLDAKEQEMTEVRDAMQQQLAEYQELLDIKLALDMEISAYRKLLEGEEERLKLSPSPSSRITISRATSSSSSSSGVGMSVGQGRGKRRRLETEDTSGSPSRASRVSSGSRLAQQTVATGVVNIDEVDPEGRFVRLKNSSDKDQSLGNWRIKRQVLEGEDIAYKFTPKYVLRAGQTVTVWAAGAGATHSPPSTLVWKSQTNWGPGESFRTALVSADGEEVAVKAAKHSSVQGRENGEEEEEEEAEFGEEDLFHQQGDPRTTSRGCRLM
B4: FMN1 (protein, UniProt Q05860 1-1466)
chain: MEGTHCTLQLHNPIAELCYISFYLPKGEVRGFSYKGTVTLDRSNNAFHNCYQVREGPDITSLSQQPNEHPGDIFFKQTPTKNILTELYKLTAEKERLLDSLLRSDNILGVSMGSQEGKLQELSVILATGDEYFQSAGNWRRELPVSSLIRRSTQENKKPRRSGRRRESPEELRQKRTRRKGRGCQESAFQMGKDQVCSSSSLSFRARPNLRLLEERGNLVPRGTLTSSLRRRESCPANILRTPDADLAFGNSGRTSEDTDLEGPLSPDSSPTEVGDADVGGQLKSSHQQEPPQPNVSESHGKHAGAERWSSRTRKSKSLERTCSKKPVSKVVAKIQEPSAPVKRIVRAHHDGKGRVAYGPETQTEFIPKADFLTLPGGETETHSSGRLEEEQPGIKSLRSSAPERASITKEPASTEAAVNKVLRKVIESEKLDEATEGKRLGFSLNTRATHTFPETRSQRKAGLPQSGHKFLLLDLPHTVGPDSPQPKCDEKKPTPQVPTALGMVFNNSSPQSSAHKRLSPVPSPLSPRCPSPQQHHRILLLPPLPSEGEVVFNEYPSRKNDVSSGFPSADTLEPSSTTKVTETKGASPTSLRASQTWLVSEEASEKGLGPEKITAPPQHQLPPGIASEGFPCDNFKEQTAKDLPNKDGGVWVPGYRAGPPCPFLLHEEKEKTSRSELYLDLNPDQSPTEQDDRTPGRLQAVWPPPKTKDTEEKVGLKYTEAEYQAAILHLKREHKEEIETLQAQFELKTFHIRGEHALVTARLEEAIENLKQQLGKRREGCEEMRDVCISTDDDCSPKAFRNVCIQTDRETFLKPCDAESKATRSSQIVPKKLTISLTQLSPSKDSKDIHAPFQTREGTSSSSQHKISPPAPPTPPPLPPPLIPPPPPLPPGLGPLPPAPPIPPVCPVSPPPPPPPPPPTPVPPSDGPPPPPPPPPPLPNVLALPNSGGPPPPPPPPPPGLAPPPPPGLSFGLSSSSSQYPRKPAIEPSCPMKPLYWTRIQINDKSQDAAPTLWDSLEEPHIRDTSEFEYLFSKDTTQQKKKPLSEAYEKKNKVKKIIKLLDGKRSQTVGILISSLHLEMKDIQQAIFTVDDSVVDLETLAALYENRAQEDELTKIRKYYETSKEEDLKLLDKPEQFLHELAQIPNFAERAQCIIFRAVFSEGITSLHRKVEIVTRASKGLLHMKSVKDILALILAFGNYMNGGNRTRGQADGYSLEILPKLKDVKSRDNGMNLVDYVVKYYLRYYDQCKHHDQEASCRGKDLFSLYFHIAVHPQRKSGLELKQEAGTDKSVFPLPEPQDFFLASQVKFEDLLKDLRKLKRQLEASEQQMKLVCKESPREYLQPFKDKLEEFFKKAKKEHKMEESHLENAQKSFETTVGYFGMKPKTGEKEVTPSYVFMVWFEFCSDFKTIWKRESKNISKERLKMAQASVSKLTSEKKVETKKINPTASLKERLRQKEASVATN
B5: CHMP3 (protein, UniProt Q9CQ10 1-224)
chain: MGLFGKTQEKPPKELVNEWSLKIRKEMRVVDRQIRDIQREEEKVKRSVKDAAKKGQKEVCVVLAKEMIRSRKAVSKLYASKAHMNSVLMGMKNQLAVLRVAGSLQKSTEVMKAMQSLVKIPEIQATMRELSKEMMKAGIIEEMLEDTFESMDDQEEMEEAAEMEIDRILFEITAGALGKAPSKVTDALPEPEPAGAMAASEEGEEEEDEEDLEAMQSRLATLRS
B6: DKC1 (protein, UniProt Q9ESX5 1-509)
chain: MADAEVITFPKKHKKKKDRKPLQEDDVAEIQHAEEFLIKPESKVAQLDTSQWPLLLKNFDKLNVRTAHYTPLPCGSNPLKREIGDYIRTGFINLDKPSNPSSHEVVAWIRRILRVEKTGHSGTLDPKVTGCLIVCIERATRLVKSQQSAGKEYVGIVRLHNAIEGGTQLSRALETLTGALFQRPPLIAAVKRQLRVRTIYESKMIEYDPERRLGIFWVSCEAGTYIRTLCVHLGLLLGVGGQMQELRRVRSGVMSEKDHMVTMHDVLDAQWLYDNHKDESYLRRVVYPLEKLLTSHKRLVMKDSAVNAICYGAKIMLPGLLRYEDGIEVNQEIVVITTKGEAICMAIALMTTAVISTCDHGIVAKIKRVIMERDTYPRKWGLGPKASQKKMMIKQGLLDKHGKPTDNTPATWKQDYIDYSDSGKNTLVTEAVQAPQLAAEAVNVIKRKRDSESESDETPTVPQLKEKKKKKDKKPKTVLESGGETGDGDNDTTKKKKKKKVKVVEEMSE
B7: NHP2L1 (protein, UniProt Q9D0T1 1-128)
chain: MTEADVNPKAYPLADAHLTKKLLDLVQQSCNYKQLRKGANEATKTLNRGISEFIVMAADAEPLEIILHLPLLCEDKNVPYVFVRSKQALGRACGVSRPVIACSVTIKEGSQLKQQIQSIQQSIERLLV
B8: NOP58 (protein, UniProt Q6DFW4 1-536)
chain: MLVLFETSVGYAIFKVLNEKKLQEVDSLWKEFETPEKANKIVKLKHFEKFQDTAEALAAFTALMEGKINKQLKKVLKKIVKEAHEPLAVADAKLGGVIKEKLNLSCIHSPVVNELMRGIRSQMDGLIPGVEPREMAAMCLGLAHSLSRYRLKFSADKVDTMIVQAISLLDDLDKELNNYIMRCREWYGWHFPELGKIISDNLTYCKCLQKVGDRKNYASASLSEFLSEEVEAEVKAAAEISMGTEVSEEDICNILHLCTQVIEISEYRTQLYEYLQNRMMAIAPNVTVMVGELVGARLIAHAGSLLNLAKHAASTVQILGAEKALFRALKSRRDTPKYGLIYHASLVGQSSPKHKGKISRMLAAKTVLAIRYDAFGEDSSSAMGIENRAKLEARLRILEDRGIRKISGTGKALAKAEKYEHKSEVKTYDPSGDSTLPTCSKKRKIEEVDKEDEITEKKAKKAKIKIKAEVEEEMEEEEAEEEQVVEEEPTVKKKKKKDKKKHIKEEPLSEEEPCTSTAVPSPEKKKKKKKKKDAED

The target in one experiment is T1, SATB2 (mouse (endogenous in cortex)). Description: affinity purification with mass spectrometry; endogenous SATB2 precipitated with anti-SATB2 on protein G Dynabeads from adult (three month-old) mouse cortical lysate (1 mg total protein, overnight 4°C; 25 mM Tris/HCl pH 7.4, 150 mM NaCl, 1% NP-40, 1 mM EDTA, 5% glycerol); Satb2 knock-out lysate as negative control; LC-MS.
BCLAF1 (from UniProt Q8K019 1-919): the binding entry is “binds”.

Regarding DMD (from UniProt P11531 1-3678), the binding entry is given as “binds”.

Consider “HNRNPU-like 2 (from UniProt Q00PI9 1-745)”, for which the binding result is “binds”.

PTK2B (from UniProt Q9QVP9 1-1009): the binding entry was “binds”.

“scaffold attachment factor B1 (SAFB1) (from UniProt D3YXK2 1-937)”: the binding entry was “binds”.

For the molecule B1, the binding result is listed as “binds”.

Turning to B2, the binding result was “binds”.

With B3, the binding entry is recorded as “binds”.

As to B4, the binding entry is “binds”.

Regarding B5, the binding entry is recorded as “binds”.

The target is the same in the next experiment. Description: affinity purification with mass spectrometry; endogenous SATB2 precipitated with anti-SATB2 on protein G Dynabeads from neonatal mouse cortical lysate (1 mg total protein, overnight 4°C; 25 mM Tris/HCl pH 7.4, 150 mM NaCl, 1% NP-40, 1 mM EDTA, 5% glycerol); Satb2 knock-out lysate as negative …; LC-MS.
For the molecule B6, the binding entry was “binds”.

With B7, the binding result was “binds”.

For the molecule B8, the binding result was “binds”.

Values taken from PMC6364870.
